Reference: the supplement of paper PMC10849652
Some of the results follow.

Amino acid sequences for entries named in this document (tags omitted). A change or cut given only in a name is not applied to a line headed by its entry.
UniProt Q8N5Y8: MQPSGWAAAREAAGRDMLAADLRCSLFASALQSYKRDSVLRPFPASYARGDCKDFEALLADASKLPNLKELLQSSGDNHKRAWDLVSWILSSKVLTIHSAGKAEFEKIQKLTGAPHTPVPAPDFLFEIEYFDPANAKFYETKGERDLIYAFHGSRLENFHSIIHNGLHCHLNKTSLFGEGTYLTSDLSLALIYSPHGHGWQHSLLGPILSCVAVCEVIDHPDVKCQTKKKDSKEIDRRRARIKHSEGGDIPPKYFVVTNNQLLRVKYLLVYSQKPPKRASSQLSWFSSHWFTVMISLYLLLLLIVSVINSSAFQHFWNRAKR
UniProt Q7Z2X7: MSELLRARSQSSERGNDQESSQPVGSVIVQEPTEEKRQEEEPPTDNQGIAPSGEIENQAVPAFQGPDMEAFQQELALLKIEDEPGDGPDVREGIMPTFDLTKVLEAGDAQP
UniProt Q9Y5B6: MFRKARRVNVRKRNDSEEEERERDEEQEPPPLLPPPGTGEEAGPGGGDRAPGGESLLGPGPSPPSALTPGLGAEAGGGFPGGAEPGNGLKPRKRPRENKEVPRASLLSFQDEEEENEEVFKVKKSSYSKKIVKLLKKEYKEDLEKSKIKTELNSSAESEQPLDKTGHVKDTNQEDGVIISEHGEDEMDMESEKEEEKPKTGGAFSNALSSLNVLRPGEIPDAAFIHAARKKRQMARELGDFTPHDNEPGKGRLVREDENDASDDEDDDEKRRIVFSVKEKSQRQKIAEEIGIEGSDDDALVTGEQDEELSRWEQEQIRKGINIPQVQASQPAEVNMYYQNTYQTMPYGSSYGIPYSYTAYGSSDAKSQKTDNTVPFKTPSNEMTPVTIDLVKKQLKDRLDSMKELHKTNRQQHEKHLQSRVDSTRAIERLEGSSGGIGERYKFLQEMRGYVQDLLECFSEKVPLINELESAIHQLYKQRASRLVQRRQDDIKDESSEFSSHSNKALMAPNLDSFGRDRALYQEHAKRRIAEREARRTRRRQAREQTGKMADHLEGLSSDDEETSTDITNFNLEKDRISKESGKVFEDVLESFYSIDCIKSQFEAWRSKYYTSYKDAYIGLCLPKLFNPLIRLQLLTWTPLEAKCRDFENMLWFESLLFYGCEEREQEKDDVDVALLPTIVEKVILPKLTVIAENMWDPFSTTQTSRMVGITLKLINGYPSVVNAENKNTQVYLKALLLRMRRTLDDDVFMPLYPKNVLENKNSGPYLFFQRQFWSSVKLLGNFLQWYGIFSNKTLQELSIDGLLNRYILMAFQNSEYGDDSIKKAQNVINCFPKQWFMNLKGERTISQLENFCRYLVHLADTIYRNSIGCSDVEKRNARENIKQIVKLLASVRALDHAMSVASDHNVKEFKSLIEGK
UniProt H7BZJ3: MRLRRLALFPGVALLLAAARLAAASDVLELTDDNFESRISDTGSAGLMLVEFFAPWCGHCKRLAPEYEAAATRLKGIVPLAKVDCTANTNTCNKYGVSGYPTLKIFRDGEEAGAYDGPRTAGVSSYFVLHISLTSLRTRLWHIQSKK
UniProt O43924: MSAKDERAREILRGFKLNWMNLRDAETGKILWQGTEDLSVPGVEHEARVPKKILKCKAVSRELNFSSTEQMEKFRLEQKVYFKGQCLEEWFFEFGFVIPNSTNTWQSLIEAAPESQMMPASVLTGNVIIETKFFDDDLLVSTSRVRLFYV
UniProt Q08174: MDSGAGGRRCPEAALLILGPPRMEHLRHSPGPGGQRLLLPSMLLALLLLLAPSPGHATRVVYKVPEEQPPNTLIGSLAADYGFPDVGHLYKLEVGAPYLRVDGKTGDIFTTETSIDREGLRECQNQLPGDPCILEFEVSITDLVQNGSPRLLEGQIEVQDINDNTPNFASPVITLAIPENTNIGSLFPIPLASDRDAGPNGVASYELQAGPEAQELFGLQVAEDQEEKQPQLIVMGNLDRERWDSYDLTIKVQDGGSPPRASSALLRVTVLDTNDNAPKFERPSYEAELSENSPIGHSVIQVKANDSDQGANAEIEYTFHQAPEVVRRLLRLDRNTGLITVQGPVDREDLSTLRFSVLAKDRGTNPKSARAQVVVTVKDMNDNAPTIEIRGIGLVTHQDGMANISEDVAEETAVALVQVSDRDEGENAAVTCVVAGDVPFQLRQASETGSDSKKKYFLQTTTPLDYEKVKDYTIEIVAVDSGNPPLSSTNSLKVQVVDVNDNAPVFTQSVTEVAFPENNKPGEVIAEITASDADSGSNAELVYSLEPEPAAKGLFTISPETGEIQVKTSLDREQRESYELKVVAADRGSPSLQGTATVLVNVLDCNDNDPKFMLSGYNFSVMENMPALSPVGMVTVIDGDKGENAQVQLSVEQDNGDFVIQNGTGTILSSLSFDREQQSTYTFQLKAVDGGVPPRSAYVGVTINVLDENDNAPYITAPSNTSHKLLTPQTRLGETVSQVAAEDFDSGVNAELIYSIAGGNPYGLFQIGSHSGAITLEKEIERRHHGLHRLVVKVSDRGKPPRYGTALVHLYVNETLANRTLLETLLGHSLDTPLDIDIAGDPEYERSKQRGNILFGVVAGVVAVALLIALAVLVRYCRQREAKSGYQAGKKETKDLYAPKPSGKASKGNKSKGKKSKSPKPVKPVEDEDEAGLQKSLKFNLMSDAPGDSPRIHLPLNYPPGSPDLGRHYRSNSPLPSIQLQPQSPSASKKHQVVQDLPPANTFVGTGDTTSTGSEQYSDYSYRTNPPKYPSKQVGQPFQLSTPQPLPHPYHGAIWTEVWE
UniProt Q13310, whole entry, looked up: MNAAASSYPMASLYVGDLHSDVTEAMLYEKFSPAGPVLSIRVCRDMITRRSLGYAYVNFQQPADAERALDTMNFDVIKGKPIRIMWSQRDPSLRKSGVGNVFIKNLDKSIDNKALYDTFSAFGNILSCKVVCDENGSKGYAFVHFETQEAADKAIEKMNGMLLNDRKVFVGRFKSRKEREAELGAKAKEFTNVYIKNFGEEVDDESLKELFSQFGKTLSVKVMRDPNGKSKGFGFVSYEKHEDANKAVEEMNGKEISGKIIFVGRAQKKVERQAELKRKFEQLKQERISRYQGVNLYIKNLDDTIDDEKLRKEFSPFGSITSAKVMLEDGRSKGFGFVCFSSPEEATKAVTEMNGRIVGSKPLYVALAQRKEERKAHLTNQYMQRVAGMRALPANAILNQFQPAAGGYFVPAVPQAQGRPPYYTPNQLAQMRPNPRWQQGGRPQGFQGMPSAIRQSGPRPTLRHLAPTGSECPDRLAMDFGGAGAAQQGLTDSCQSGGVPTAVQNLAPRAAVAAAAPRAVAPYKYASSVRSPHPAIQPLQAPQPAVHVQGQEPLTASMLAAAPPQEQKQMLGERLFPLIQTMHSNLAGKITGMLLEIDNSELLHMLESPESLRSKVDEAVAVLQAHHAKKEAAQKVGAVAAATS
UniProt Q5JVF3: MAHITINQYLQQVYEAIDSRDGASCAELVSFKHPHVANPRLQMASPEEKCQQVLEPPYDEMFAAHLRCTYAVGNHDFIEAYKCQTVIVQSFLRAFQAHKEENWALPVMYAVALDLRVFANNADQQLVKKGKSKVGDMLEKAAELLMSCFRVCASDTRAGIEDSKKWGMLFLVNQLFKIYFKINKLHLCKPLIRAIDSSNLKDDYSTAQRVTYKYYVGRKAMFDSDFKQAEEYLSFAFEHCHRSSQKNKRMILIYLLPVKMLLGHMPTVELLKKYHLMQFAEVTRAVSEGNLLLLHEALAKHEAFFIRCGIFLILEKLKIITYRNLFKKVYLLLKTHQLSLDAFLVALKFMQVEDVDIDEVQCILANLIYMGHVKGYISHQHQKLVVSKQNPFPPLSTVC
UniProt Q9UBM1: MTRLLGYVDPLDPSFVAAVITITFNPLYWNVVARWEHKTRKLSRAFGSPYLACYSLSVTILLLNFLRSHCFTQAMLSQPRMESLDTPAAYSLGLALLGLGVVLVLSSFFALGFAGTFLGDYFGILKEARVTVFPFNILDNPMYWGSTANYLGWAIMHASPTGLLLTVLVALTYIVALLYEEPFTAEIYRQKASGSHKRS
UniProt Q16342: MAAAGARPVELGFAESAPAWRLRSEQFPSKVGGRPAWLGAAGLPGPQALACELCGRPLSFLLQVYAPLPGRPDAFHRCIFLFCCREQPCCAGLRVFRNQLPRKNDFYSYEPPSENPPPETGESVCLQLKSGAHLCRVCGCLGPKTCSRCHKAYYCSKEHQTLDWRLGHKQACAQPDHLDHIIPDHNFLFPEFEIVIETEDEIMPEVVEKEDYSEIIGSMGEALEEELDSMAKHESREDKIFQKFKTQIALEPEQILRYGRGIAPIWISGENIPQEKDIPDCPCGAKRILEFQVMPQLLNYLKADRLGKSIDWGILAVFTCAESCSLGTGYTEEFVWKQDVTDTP
UniProt Q86W56: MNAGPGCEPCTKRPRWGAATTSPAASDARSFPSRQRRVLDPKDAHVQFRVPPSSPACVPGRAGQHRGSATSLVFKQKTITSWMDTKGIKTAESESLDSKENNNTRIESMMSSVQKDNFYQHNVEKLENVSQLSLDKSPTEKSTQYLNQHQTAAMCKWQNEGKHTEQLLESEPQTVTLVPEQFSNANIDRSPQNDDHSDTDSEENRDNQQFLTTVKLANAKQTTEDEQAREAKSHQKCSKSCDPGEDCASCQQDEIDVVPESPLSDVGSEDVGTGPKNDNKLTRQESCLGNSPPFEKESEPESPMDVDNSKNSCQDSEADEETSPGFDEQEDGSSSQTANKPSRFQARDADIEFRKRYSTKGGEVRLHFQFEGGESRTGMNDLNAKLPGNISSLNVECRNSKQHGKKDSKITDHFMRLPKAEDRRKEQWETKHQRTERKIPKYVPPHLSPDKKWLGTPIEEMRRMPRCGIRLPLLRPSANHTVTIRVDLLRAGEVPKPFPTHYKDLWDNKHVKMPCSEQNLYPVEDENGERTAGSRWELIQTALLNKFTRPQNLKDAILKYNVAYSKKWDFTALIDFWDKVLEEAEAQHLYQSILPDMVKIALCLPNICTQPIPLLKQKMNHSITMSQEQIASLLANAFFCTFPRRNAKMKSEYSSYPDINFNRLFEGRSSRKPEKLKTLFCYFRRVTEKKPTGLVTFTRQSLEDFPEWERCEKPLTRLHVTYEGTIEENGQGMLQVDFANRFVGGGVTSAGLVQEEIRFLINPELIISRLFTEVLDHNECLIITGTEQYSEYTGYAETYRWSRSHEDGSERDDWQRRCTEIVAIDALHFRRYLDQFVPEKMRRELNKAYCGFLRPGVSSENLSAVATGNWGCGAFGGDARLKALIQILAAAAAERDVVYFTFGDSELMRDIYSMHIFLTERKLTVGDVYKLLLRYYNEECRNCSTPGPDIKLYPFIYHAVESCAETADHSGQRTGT
UniProt Q9NV79: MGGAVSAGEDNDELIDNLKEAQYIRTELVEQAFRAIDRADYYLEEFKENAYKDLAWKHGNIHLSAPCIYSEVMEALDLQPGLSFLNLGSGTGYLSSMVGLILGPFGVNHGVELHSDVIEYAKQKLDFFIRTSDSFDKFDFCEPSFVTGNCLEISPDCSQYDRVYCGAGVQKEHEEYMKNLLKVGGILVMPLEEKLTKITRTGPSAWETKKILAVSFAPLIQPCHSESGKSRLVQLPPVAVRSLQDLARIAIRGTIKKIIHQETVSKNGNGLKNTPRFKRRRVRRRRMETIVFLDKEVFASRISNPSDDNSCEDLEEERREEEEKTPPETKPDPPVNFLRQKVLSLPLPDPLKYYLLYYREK
UniProt Q9H813: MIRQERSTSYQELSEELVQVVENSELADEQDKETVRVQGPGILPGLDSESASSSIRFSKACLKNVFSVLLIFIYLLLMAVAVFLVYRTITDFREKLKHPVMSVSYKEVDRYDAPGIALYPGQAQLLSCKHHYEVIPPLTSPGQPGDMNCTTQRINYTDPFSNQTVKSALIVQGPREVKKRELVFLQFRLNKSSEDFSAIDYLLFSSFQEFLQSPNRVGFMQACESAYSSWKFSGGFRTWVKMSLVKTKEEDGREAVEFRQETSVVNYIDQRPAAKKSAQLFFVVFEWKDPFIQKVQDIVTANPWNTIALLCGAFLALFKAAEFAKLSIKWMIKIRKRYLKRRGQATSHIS
UniProt Q5EBL8: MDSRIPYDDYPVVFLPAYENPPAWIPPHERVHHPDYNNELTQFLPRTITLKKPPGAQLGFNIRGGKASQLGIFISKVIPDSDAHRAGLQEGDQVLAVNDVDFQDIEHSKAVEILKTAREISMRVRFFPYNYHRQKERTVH
UniProt O60683: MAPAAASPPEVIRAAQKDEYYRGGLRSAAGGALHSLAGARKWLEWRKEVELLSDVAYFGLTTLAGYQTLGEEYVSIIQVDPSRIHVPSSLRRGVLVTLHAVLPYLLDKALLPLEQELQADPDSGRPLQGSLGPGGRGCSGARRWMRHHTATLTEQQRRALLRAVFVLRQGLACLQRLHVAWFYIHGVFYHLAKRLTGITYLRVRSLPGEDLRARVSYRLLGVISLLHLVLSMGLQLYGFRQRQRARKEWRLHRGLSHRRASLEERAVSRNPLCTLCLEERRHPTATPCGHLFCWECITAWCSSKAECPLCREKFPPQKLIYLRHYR

Compound: C1CCN(C1)C(=O)NC2=CC=CC(=C2)NC3=NC=C(C(=N3)NCCC4=CN=CN4)Br
Assay: log2 fold change, soluble protein after heating vs DMSO (PISA); higher = thermal stabilisation; K562 cells, 10 uM, 30 min; active = over 0.2 and 3.5 SD of the protein, either way, in both replicates (recomputed)
Procedure, shortened: (§1)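 Quantification of soluble protein used TMTpro 16plex LC-MS/MS, with channel sums equalised. Samples were the supernatant after 21,000xg for 90 min of pooled aliquots from K562 cells (2×10^6 cells/mL) treated with 10 μM compound for 30 min, heated for 3 min over 48°C-58°C, and extracted in PBS with 0.5% NP-40 at 4°C. Values, from duplicates, describe thermal stability against control samples on a log2 fold-change scale.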

log2 fold change, inactive:
PARP16 isoform 3 (UniProt Q8N5Y8) -0.026
PAGE2 (UniProt Q7Z2X7) -0.106
PAFAH2 (UniProt Q99487) -0.017
PAXBP1 (UniProt Q9Y5B6) -0.009
PDIA3 (UniProt H7BZJ3) 0.257
PDE6D (UniProt O43924) 0.417
PCDH1 isoform 2 (UniProt Q08174) 0.023
PABPC4 isoform 3 (UniProt Q13310) 0.051
PCID2 (UniProt Q5JVF3) -0.086
PEMT isoform 2 (UniProt Q9UBM1) -0.189
PDCD2 (UniProt Q16342) -0.021
PDIA4, A0A499FI48 0.262
PARG (UniProt Q86W56) -0.079
PCMTD2 (UniProt Q9NV79) -0.01
PACC1 (UniProt Q9H813) -0.015
PCBP2 (UniProt F8VRH0) -0.13
PCNX1 (UniProt Q96RV3) -0.019
PDZD11 isoform 2 (UniProt Q5EBL8) 0.008
PAIP1 (UniProt Q9H074) -0.023
PDE6C (UniProt P51160) -0.324
PEX10 isoform 2 (UniProt O60683) 0.019

Compound: C1CN(CCC1(CC2=CC=C(C=C2)Cl)N)C3=NC=NC4=C3C=CN4
Assay: as above
Procedure, shortened: as §1

log2 fold change, inactive:
PARP16 isoform 3 (UniProt Q8N5Y8) 0.067
PAGE2 (UniProt Q7Z2X7) -0.047
PAFAH2 (UniProt Q99487) 0.08
PAXBP1 (UniProt Q9Y5B6) -0.458
PDIA3 (UniProt H7BZJ3) 0.172
PDE6D (UniProt O43924) 0.028
PCDH1 isoform 2 (UniProt Q08174) 0.191
PABPC4 isoform 3 (UniProt Q13310) -0.089
PCID2 (UniProt Q5JVF3) -0.161
PEMT isoform 2 (UniProt Q9UBM1) 0.031
PDCD2 (UniProt Q16342) -0.118
PDIA4, A0A499FI48 -0.154
PARG (UniProt Q86W56) -0.071
PCMTD2 (UniProt Q9NV79) -0.081
PACC1 (UniProt Q9H813) -0.027
PCBP2 (UniProt F8VRH0) 0.113
PCNX1 (UniProt Q96RV3) -0.041
PDZD11 isoform 2 (UniProt Q5EBL8) -0.046
PAIP1 (UniProt Q9H074) -0.024
PDE6C (UniProt P51160) -0.021
PEX10 isoform 2 (UniProt O60683) 0.11
